Earlier results as cited in patent US6911449B2, “Inhibition of matrix metalloproteases by substituted biaryl oxobutyric acids” (Bayer Pharmaceuticals Corporation, priority 1996, dated 2005).
For at least one compound, name, drawing or mass did not settle the structure.

What was measured:
[1] = tested on: human ovarian carcinoma xenografts; conditions: mice bearing human ovarian carcinoma xenografts; cited from earlier work
[2] = tested on: human colon tumor; conditions: given intraperitoneally, orthotopic model in nude mice; cited from earlier work

CNC(=O)[C@H](Cc1ccccc1)NC(=O)[C@H](CC(C)C)[C@H](CSc1cccs1)C(=O)NO [batimastat]
survival [1]: prolongs the survival | tumor growth and spread [2]: inhibits human colon tumor growth and spread
